Measurements as given in the supplement of paper PMC12889115.
Some of the results follow. Values are raw readings; no control value is given beside them.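 Primary screen: polymyxin B was added at a level permeabilizing Salmonella outer membranes while sparing inner membranes. DMSO wells, both with and without polymyxin B, established maximum growth. Plate-to-plate variation meant each plate was ranked on its own, and the lowest-OD600 compounds were selected as hits.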

Test system: Salmonella enterica serovar Typhimurium SL1344
Assay: bacterial growth OD600 after 18 h with compound and polymyxin B; higher = more bacterial growth (less inhibition)
Details: 50 µM, Mueller-Hinton broth

Row | SMILES | bacterial growth OD600 (polymyxin B 0.75 µg/mL) | bacterial growth OD600 (polymyxin B 1 µg/mL)
1 | O=C(CCCn1cncn1)N1CCCC(CCc2ccccc2F)C1 (stereo unspecified) | 0.901 | –
2 | COc1ccc(C(=O)N2CCCC(N3CCN(c4ccccc4OC)CC3)C2)o1 (stereo unspecified) | – | 0.064
3 | COC(=O)c1c(S(=O)(=O)NCc2ccccc2Cl)sc2c1CCN(C(=O)/C=C/C(C)C)C2 | 0.009 | –
4 | CC(C)(C)NC(=O)c1coc(COc2cccc(F)c2F)n1 | 0.812 | –
5 | COCCC(=O)Nc1ccc2c(c1)CN(CC1=CC[C@H]3C[C@@H]1C3(C)C)CC2 | 0.748 | –
6 | CCc1ccc(CN2CCCC(C(=O)Nc3ccccc3Oc3cccnc3)C2)o1 (stereo unspecified) | – | 0.686
7 | CCOC(=O)C1(CCOC)CCN(Cc2cccc3c2oc2ccccc23)CC1 | – | 0.824
8 | COc1ccc(CNC(=O)CCC2(Cc3cccc(OC)c3)CCC(=O)N2)cc1 (stereo unspecified) | 0.874 | –
9 | O=C(c1cc(COc2ccc(F)cc2Cl)on1)N1CCCC1 | 0.586 | –
10 | CCOC(=O)N1CCC(NC(=O)C2CC23CCN(C(=O)c2cc4cc(C)ccc4[nH]2)CC3)CC1 (stereo unspecified) | 0.721 | –
11 | COc1ccccc1Oc1ncccc1CNC(=O)c1cccnc1C | – | 0.873
12 | COCCO[C@H]1[C@H](NC(=O)C(C)C)c2ccccc2C12CCN(C(=O)c1cc(F)cc(F)c1)CC2 | 0.772 | –
13 | CCOC(=O)C1(Cc2cccc(F)c2)CCN(Cc2cccc(C)n2)CC1 | – | 0.797
14 | Cc1noc(C)c1CCCNC(=O)c1ccc(NC(C)C)nc1 | 0.775 | –
15 | COc1ccccc1CN(C)C(=O)c1coc(COc2cccc(F)c2F)n1 | – | 0.844
16 | Cc1cnc(SCCN2CCOCC2)nc1C1CCCN(C(=O)CCC2CCCCC2)C1 (stereo unspecified) | 0.002 | –

Row | SMILES | bacterial growth OD600 (polymyxin B 0.75 µg/mL) | bacterial growth OD600 (polymyxin B 1 µg/mL)
17 | C1CCN(C2CCN(c3nc4nonc4nc3N3CCOCC3)CC2)C1 | 0.725 | –
18 | COc1ccccc1OCC(=O)NCC1CCCN(C/C=C/c2ccccc2)C1 (stereo unspecified) | – | 0.951
19 | O=C(c1n[nH]c(=O)c2ccccc12)N1CCC2(CCCN(Cc3cccc(F)c3F)C2)C1 (stereo unspecified) | – | 0.754
20 | CCOc1ccccc1CN1CCOc2ccc(CN3CCC(Oc4cccnc4)CC3)cc2C1 | 0.728 | –
21 | O=C(CC(c1ccccc1)c1ccccc1F)N1CCN(C(=O)c2ccco2)CC1 (stereo unspecified) | 0.638 | –
22 | CN(CCc1ccccc1)Cc1cnc(S(C)(=O)=O)n1Cc1ccccc1F | – | 0.951
23 | CCCCNC(=O)C1CCCN(C2CCN(C3Cc4ccccc4C3)CC2)C1 (stereo unspecified) | – | 0.827
24 | Cc1ncsc1CCCNC(=O)C1CCC(=O)N(CCc2cccc(F)c2)C1 (stereo unspecified) | – | 0.935
25 | COC(=O)[C@@H]1CCCN1C(=O)Cc1ccc(N2CCC(NCCc3cnccn3)CC2)cc1 | 0.743 | –
26 | O=C1CCC(CCC(=O)N2CCC(c3ccccc3Cl)C2)(Cc2ccccc2)N1 (stereo unspecified) | 0.993 | –
27 | Cc1nccn1CCCNC(=O)C1(N2CCCCC2)Cc2ccccc2C1 | 0.858 | –
28 | CCn1nc(C)cc1C(=O)N1CCc2c(cnc(C)c2CNS(=O)(=O)c2cccs2)C1 | 0.847 | –
29 | COc1cccc([C@@H](C)NCc2c(C(=O)N3CCOCC3)nc3c(C)cccn23)c1 | – | 1.09
30 | CCC(O)CN1C(=O)CCC1CCNCCOc1ccc(F)cc1 (stereo unspecified) | 0.97 | –
31 | C[C@@H]1CN(C(=O)c2nc3sccn3c2CN2CCN(CC3CC3)CC2)C[C@H](C)O1 | – | 0.89

In the list so far, 6 have sulfur.
Row | SMILES | bacterial growth OD600 (polymyxin B 0.75 µg/mL) | bacterial growth OD600 (polymyxin B 1 µg/mL)
3 | COC(=O)c1c(S(=O)(=O)NCc2ccccc2Cl)sc2c1CCN(C(=O)/C=C/C(C)C)C2 | 0.009 | –
16 | Cc1cnc(SCCN2CCOCC2)nc1C1CCCN(C(=O)CCC2CCCCC2)C1 (stereo unspecified) | 0.002 | –
22 | CN(CCc1ccccc1)Cc1cnc(S(C)(=O)=O)n1Cc1ccccc1F | – | 0.951
24 | Cc1ncsc1CCCNC(=O)C1CCC(=O)N(CCc2cccc(F)c2)C1 (stereo unspecified) | – | 0.935
28 | CCn1nc(C)cc1C(=O)N1CCc2c(cnc(C)c2CNS(=O)(=O)c2cccs2)C1 | 0.847 | –
31 | C[C@@H]1CN(C(=O)c2nc3sccn3c2CN2CCN(CC3CC3)CC2)C[C@H](C)O1 | – | 0.89
